In the supplement of paper PMC10849652:
The list shows a part of the results.

Sequences of proteins named here, by UniProt entry; tags and fusion partners are left off. A change or cut given only in a name is not applied to a line headed by its entry.
UniProt Q96FZ2: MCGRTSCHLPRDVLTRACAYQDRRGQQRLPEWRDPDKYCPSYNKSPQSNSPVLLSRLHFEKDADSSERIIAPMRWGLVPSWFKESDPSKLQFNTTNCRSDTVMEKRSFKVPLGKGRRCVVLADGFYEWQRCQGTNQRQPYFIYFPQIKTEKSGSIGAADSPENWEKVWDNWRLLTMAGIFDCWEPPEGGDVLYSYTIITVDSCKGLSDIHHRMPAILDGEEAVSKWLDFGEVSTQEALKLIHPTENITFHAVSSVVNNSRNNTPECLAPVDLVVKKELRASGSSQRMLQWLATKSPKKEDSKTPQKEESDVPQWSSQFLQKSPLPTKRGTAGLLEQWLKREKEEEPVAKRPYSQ
UniProt P17066, whole entry, looked up: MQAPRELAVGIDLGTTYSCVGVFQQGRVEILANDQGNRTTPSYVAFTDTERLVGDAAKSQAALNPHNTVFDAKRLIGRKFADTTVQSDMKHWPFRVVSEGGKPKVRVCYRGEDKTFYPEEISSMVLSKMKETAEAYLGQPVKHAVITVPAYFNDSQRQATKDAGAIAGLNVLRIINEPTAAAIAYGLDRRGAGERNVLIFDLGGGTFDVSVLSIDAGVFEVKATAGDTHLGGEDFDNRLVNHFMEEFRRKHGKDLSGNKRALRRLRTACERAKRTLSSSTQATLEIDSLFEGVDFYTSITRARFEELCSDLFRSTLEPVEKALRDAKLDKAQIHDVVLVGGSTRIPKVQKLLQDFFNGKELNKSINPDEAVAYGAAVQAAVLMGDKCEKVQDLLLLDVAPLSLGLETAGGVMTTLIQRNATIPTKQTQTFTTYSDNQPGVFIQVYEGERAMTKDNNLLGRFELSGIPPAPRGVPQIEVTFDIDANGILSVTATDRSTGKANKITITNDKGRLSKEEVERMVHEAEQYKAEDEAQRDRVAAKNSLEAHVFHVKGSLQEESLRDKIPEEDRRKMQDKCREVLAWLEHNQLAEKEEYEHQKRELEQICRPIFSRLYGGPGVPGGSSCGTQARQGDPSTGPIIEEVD
UniProt P30519: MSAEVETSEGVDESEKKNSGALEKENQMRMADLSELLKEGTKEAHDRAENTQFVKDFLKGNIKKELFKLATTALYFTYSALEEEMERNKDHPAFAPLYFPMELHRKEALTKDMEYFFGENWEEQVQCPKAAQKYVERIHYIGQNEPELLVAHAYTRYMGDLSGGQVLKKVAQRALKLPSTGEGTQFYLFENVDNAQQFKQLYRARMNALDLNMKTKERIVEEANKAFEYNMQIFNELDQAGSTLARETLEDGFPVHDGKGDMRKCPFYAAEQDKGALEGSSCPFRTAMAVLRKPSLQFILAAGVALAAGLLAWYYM
UniProt Q00613: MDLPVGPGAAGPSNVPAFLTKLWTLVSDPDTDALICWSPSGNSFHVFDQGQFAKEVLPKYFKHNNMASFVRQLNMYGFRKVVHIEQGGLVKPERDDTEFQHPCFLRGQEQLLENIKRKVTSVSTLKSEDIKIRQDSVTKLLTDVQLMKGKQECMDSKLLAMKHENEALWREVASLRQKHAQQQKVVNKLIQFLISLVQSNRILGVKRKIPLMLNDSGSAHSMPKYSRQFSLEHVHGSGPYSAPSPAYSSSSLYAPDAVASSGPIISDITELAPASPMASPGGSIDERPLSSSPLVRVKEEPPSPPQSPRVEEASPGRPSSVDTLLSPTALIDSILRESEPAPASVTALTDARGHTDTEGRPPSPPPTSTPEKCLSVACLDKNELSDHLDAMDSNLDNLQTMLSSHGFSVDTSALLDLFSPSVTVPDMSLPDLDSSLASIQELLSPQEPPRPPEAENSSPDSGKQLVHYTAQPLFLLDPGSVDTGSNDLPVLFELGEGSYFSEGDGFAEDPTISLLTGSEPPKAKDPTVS
UniProt Q1KMD3: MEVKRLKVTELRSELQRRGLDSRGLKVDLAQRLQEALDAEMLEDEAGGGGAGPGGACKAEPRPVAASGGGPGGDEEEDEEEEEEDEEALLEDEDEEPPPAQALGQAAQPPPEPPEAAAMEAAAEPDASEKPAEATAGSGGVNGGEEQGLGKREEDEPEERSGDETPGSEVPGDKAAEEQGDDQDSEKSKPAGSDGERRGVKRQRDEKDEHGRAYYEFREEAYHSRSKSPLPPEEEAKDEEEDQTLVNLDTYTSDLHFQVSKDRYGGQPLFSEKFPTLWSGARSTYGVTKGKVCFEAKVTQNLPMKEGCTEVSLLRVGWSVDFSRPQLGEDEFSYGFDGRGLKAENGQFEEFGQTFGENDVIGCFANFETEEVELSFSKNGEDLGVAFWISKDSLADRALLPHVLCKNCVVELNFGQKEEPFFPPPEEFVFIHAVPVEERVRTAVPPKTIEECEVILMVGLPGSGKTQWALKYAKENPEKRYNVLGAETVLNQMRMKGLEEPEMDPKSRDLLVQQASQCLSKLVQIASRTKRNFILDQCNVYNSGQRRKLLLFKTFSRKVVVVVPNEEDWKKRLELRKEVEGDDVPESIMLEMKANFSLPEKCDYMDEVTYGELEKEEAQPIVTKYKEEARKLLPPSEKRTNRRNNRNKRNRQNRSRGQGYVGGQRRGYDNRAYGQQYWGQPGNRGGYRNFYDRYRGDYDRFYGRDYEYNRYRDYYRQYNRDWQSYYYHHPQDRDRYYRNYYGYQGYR
UniProt Q58FG1, whole entry, looked up: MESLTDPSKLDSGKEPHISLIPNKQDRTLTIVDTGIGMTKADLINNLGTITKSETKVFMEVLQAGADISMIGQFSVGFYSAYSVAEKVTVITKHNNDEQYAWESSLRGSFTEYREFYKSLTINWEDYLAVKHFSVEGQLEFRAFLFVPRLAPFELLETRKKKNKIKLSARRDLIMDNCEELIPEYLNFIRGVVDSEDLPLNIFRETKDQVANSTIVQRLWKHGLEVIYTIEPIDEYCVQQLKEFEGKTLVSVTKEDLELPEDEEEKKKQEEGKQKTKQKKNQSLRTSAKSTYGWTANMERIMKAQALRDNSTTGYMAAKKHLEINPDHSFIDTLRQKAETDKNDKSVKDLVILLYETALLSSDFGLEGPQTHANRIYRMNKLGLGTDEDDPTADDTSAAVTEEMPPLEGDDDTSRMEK
UniProt P55795: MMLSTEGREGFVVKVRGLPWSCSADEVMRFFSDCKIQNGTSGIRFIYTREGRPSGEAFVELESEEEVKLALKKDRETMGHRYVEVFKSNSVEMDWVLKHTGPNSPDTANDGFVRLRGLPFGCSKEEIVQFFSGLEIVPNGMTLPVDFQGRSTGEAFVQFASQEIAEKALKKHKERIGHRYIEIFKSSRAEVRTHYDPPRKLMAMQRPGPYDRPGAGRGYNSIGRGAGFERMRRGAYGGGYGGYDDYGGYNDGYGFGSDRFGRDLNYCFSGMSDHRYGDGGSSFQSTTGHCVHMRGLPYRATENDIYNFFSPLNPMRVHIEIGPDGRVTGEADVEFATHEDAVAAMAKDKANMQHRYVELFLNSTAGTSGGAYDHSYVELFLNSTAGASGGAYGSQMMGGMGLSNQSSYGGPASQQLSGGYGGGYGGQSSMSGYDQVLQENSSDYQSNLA

Experiments:
Experiment in all cases: log2 fold change, soluble protein after heating vs DMSO (PISA); higher = thermal stabilisation; K562 lysate, 10 uM; active = over 0.2 and 3.5 SD of the protein, either way, in both replicates (recomputed)
lapatinib = compound: CS(=O)(=O)CCNCc1ccc(-c2ccc3ncnc(Nc4ccc(OCc5cccc(F)c5)c(Cl)c4)c3c2)o1 [lapatinib]
In short: (§1)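 To prepare the extract, K562 pellets were dounce-homogenised in PBS pH 7.4 with 1 mM MgCl2, giving crude material at 1 mg/mL protein. This was treated with 10 μM compound for 30 min, then heated in aliquots for 3 min over 48°C-58°C before pooling and addition of NP-40 to 0.5% at 4°C. Centrifugation at 21,000xg for 90 min left soluble protein in the supernatant, which TMTpro 16plex LC-MS/MS quantified with equalised channel sums. Results are log-two fold changes in thermal stability compared with solvent controls, from duplicates.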

pictilisib = compound: CS(=O)(=O)N1CCN(Cc2cc3nc(-c4cccc5[nH]ncc45)nc(N4CCOCC4)c3s2)CC1 [pictilisib]
In short: as §1

crizotinib = compound: C[C@@H](Oc1cc(-c2cnn(C3CCNCC3)c2)cnc1N)c1c(Cl)ccc(F)c1Cl [crizotinib]
In short: as §1

[1] = compound: C[C@H](C1=CC=C(C=C1)C(=O)NC2=C3C=CNC3=NC=C2)N
In short: as §1

duvelisib = compound: C[C@H](Nc1ncnc2nc[nH]c12)c1cc2cccc(Cl)c2c(=O)n1-c1ccccc1 [duvelisib]
In short: as §1

gandotinib = compound: Cc1cc(Nc2cc(CN3CCOCC3)c3nc(C)c(Cc4ccc(Cl)cc4F)n3n2)n[nH]1 [gandotinib]
In short: as §1

tozasertib = compound: Cc1cc(Nc2cc(N3CCN(C)CC3)nc(Sc3ccc(NC(=O)C4CC4)cc3)n2)n[nH]1 [tozasertib]
In short: as §1

doramapimod = compound: Cc1ccc(-n2nc(C(C)(C)C)cc2NC(=O)Nc2ccc(OCCN3CCOCC3)c3ccccc23)cc1 [doramapimod]
In short: as §1

bafetinib = compound: Cc1ccc(NC(=O)c2ccc(CN3CC[C@H](N(C)C)C3)c(C(F)(F)F)c2)cc1Nc1nccc(-c2cncnc2)n1 [bafetinib]
In short: as §1

[2] = compound: Cc1cccc(CC(=O)N2CCc3c2ccc(-c2cn(C)c4ncnc(N)c24)c3F)n1
In short: as §1

nilotinib = compound: Cc1cn(-c2cc(NC(=O)c3ccc(C)c(Nc4nccc(-c5cccnc5)n4)c3)cc(C(F)(F)F)c2)cn1 [nilotinib]
In short: as §1

[3] = compound: Cc1nc(Nc2n[nH]c3c2CN(C(=O)N[C@H](CN(C)C)c2ccccc2)C3(C)C)c2sccc2n1
In short: as §1

dasatinib = compound: Cc1nc(Nc2ncc(C(=O)Nc3c(C)cccc3Cl)s2)cc(N2CCN(CCO)CC2)n1 [dasatinib]
In short: as §1

[4] = compound: Cc1ncc(-c2ccnc(Nc3ccc(S(C)(=O)=O)cc3)n2)n1C(C)C
In short: as §1

[5] = compound: Cn1cc(-c2ccc3c(c2)CCN3C(=O)Cc2cccc(C(F)(F)F)c2)c2c(N)ncnc21
In short: as §1

quisinostat = compound: Cn1cc(CNCC2CCN(c3ncc(C(=O)NO)cn3)CC2)c2ccccc21 [quisinostat]
In short: as §1

tipifarnib = compound: Cn1cncc1[C@@](N)(c1ccc(Cl)cc1)c1ccc2c(c1)c(-c1cccc(Cl)c1)cc(=O)n2C [tipifarnib]
In short: as §1

[6] = compound: NC(=O)Nc1cc(-c2cccc(F)c2)sc1C(=O)N[C@H]1CCCNC1
In short: as §1

[7] = compound: NC(=O)c1cnc(N[C@@H]2CCCC[C@@H]2N)nc1Nc1cccc(-n2nccn2)c1
In short: as §1

[8] = compound: NC1(c2ccc(-c3nc4ccn5c(=O)[nH]nc5c4cc3-c3ccccc3)cc2)CCC1
In short: as §1

Target	log2 fold change (lapatinib)	log2 fold change (pictilisib)	log2 fold change (crizotinib)	log2 fold change [1]	log2 fold change (duvelisib)	log2 fold change (gandotinib)	log2 fold change (tozasertib)	log2 fold change (doramapimod)	log2 fold change (bafetinib)	log2 fold change [2]	log2 fold change (nilotinib)	log2 fold change [3]	log2 fold change (dasatinib)	log2 fold change [4]	log2 fold change [5]	log2 fold change (quisinostat)	log2 fold change (tipifarnib)	log2 fold change [6]	log2 fold change [7]	log2 fold change [8]
HMCES (UniProt Q96FZ2)	inactive: -0.017	inactive: 0.025	inactive: -0.05	inactive: -0.023	inactive: 0.013	inactive: 0.004	inactive: 0.067	inactive: 0.033	inactive: 0.004	inactive: 0.046	inactive: -0.01	inactive: -0.023	inactive: -0.067	inactive: -0.073	inactive: -0.026	inactive: -0.092	inactive: -0.021	inactive: 0.064	inactive: -0.005	inactive: -0.007
HSPA6 (UniProt P17066)	inactive: -0.005	inactive: 0.035	inactive: -0.004	inactive: -0.059	inactive: 0.027	inactive: 0.022	inactive: -0.052	inactive: -0.004	inactive: -0.01	inactive: 0.048	inactive: 0	inactive: -0.035	inactive: -0.247	inactive: 0.004	inactive: 0.102	inactive: -0.024	inactive: -0.003	inactive: -0.017	inactive: 0.033	inactive: -0.024
HMOX2 (UniProt P30519)	inactive: 0.004	inactive: -0.042	inactive: 0.003	inactive: -0.03	inactive: 0.017	inactive: 0.024	inactive: 0.04	inactive: 0.03	inactive: -0.03	inactive: -0.001	inactive: -0.029	inactive: -0.042	inactive: -0.014	inactive: -0.066	inactive: 0.048	inactive: -0.019	inactive: 0.101	inactive: -0.013	inactive: 0.004	inactive: -0.02
HSF1 (UniProt Q00613)	inactive: -0.031	inactive: -0.005	inactive: 0.002	inactive: 0.088	inactive: -0.03	inactive: -0.052	inactive: -0.018	inactive: -0.009	inactive: 0.028	inactive: -0.039	inactive: -0.009	inactive: 0.046	inactive: -0.034	inactive: -0.041	inactive: -0.015	inactive: -0.033	inactive: 0.064	inactive: 0.018	inactive: 0.005	inactive: -0.059
HNRNPUL2 (UniProt Q1KMD3)	inactive: -0.037	inactive: -0.028	inactive: -0.033	inactive: -0.002	inactive: 0.012	inactive: -0.005	inactive: 0.009	inactive: -0.008	inactive: -0.009	inactive: 0.043	inactive: -0.037	inactive: 0.02	inactive: 0.002	inactive: 0.009	inactive: -0.005	inactive: -0.046	inactive: 0.008	inactive: 0	inactive: 0.004	inactive: -0.008
HSP90AA4P (UniProt Q58FG1)	inactive: -0.035	inactive: -0.129	inactive: -0.032	active: -0.464	inactive: 0.011	inactive: 0.042	inactive: 0.08	inactive: -0.034	inactive: -0.235	inactive: 0.128	inactive: -0.157	inactive: 0.052	inactive: 0.029	inactive: -0.062	inactive: 0.038	inactive: -0.145	inactive: 0.01	inactive: -0.065	inactive: -0.047	inactive: -0.024
HNRNPH2 (UniProt P55795)	inactive: 0.025	inactive: -0.004	inactive: -0.097	inactive: -0.048	inactive: -0.024	inactive: 0.068	inactive: -0.032	inactive: 0.062	inactive: 0.018	inactive: 0.008	inactive: -0.07	inactive: 0.04	inactive: 0.049	inactive: 0.071	inactive: 0.003	inactive: -0.147	inactive: -0.003	inactive: 0.014	inactive: -0.037	inactive: -0.113
HERC2 (UniProt O95714)	inactive: -0.001	inactive: -0.007	inactive: -0.055	inactive: -0.041	inactive: 0.023	inactive: -0.007	inactive: 0.022	inactive: 0.058	inactive: -0.15	inactive: 0.153	inactive: -0.077	inactive: 0.017	inactive: 0.032	inactive: -0.034	inactive: 0.118	inactive: -0.061	inactive: 0.007	inactive: 0.028	inactive: -0.047	inactive: 0.085
